# Reference: the supplement of paper PMC5407854, “Inhibitor of ppGalNAc-T3-mediated O-glycosylation blocks cancer cell invasiveness and lowers FGF23 levels” (eLife, 2017)
# “And” between values parts separate entries of the source, which are not always exact repeats. Equal entries are not always repeated. Over roughly 1,700 compounds, “T2 sensor activation Q score (MG/GFP ratio z-score vs DMSO controls)” has its median near 0.3; the highest 2% begin near 1.9. This is one part of the list.
# Tested on: ppGalNAc-T2 sensor
# Test: T2 sensor activation Q score (MG/GFP ratio z-score vs DMSO controls) (SD units); higher = more sensor activation (inhibition of ppGalNAc-T2 glycosylation)
# Conditions: HEK293 sensor cells; 10 µM; 6 h
# Description: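 Cells were treated with compound at 10 uM for 6 h, then MG/GFP ratio was read by flow cytometry (10,000 cells per well, duplicate wells). Q = (R - R_neg)/SD_neg relative to DMSO vehicle controls; the signal rises when the glycosyltransferase is inhibited.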
row,Structure (SMILES),T2 sensor activation Q score
1,Nc1ncncc1-c1ccc2ccccc2c1,0.3
2,CCOC(=O)/C(C#N)=C1\SS/C(=C(/C#N)C(=O)OCC)S1,0.9
3,Nc1ccc(NC(=O)Nc2ccc(N)cc2)cc1,0.2
4,Nc1nc(N)c2c(ccc3nccc32)[nH]1,1.3
5,OC(COc1cccc2ccccc12)CN1CCN(c2ccc(Cl)cc2)CC1 (centres undefined),1.05 and 0.75
6,CCOC(=O)/C(C#N)=C/c1cccc(C)c1,-0.35
7,O=C(Cn1nnc(N2CCCCC2)n1)N/N=C/c1ccccc1O,0.15
8,Cn1c(=O)c2c(nc(N3CCCCC3)n2C)n(C)c1=O,-0.7
9,O=S1(=O)CCC(N(N=Cc2ccco2)c2ccccc2)C1 (centres undefined),-0.2
10,Cn1nc(N)c2ncc(C(Cl)(Cl)Cl)nc21,-0.55
11,O=C(CCCCCCC(=O)Nc1ccccc1)NO,-1.9
12,CC(C)(C)CC(C)(C)n1nnnc1N,1.15
13,Cc1c2cc[n+](CCN3CCCCC3)cc2c(C)c2c1[nH]c1ccc(O)cc12,-0.55
14,Oc1cc(-n2cccn2)c(O)cc1-n1cccn1,0.9
15,O=[N+]([O-])/C=C/c1cc2ccccc2[nH]1,-1
16,COc1ccc2nccc(/C=C/c3ccnc4ccc(OC)cc34)c2c1,1
17,O=C(NC(=S)Nc1cccc(O)c1)c1ccco1,-0.1
18,CCCCOP(=O)(OCCCC)C1(C)CC(=O)CC(C)(C)C1 (centres undefined),-0.65
19,c1cc(-n2nnc3cnccc32)ccn1,-0.75
20,COc1ccc(NC(=O)CC(C)=O)c(OC)c1,0.8
21,O=C(Nc1ccc(C2=NCCN2)cc1)c1ccc(Cl)c(C(=O)Nc2ccc(C3=NCCN3)cc2)c1,0.45
22,Cc1c(COC(=O)NC(C)C)c(COC(=O)NC(C)C)c2n1CS(=O)(=O)C2,-0.4

row,Structure (SMILES),T2 sensor activation Q score
1,CC(=O)Nc1c(C)cc(OCC(=O)O)cc1C,-0.05
2,O=c1cc2c(=O)oc3cc(O)c(O)oc3c2c(O)c1O,1.85
3,NC(=S)Nc1cccc(Cl)c1,-0.35
4,C1=CC2(C=C1)OC21CCC2(C=CC3(C2)OC3C2CCCCC2)CC1 (centres undefined),0.75
5,O=NN(CCCl)C(=O)NCCCl,-1.55
6,COc1ccc(/C=C2/CCOC2=O)cc1,-1.7
7,O=C(O)C(c1ccccc1)C1(O)CCCCC1 (centres undefined),0.9
8,Cc1[nH]c(=O)n(C(C)C)c(=O)c1Br,0.6
9,O=c1[nH]c(C(F)(F)C(F)(F)C(F)(F)F)no1,-0.3
10,CCCCN1CCNC1=S,-0.45
11,CC(C)(C)NC(=O)c1ccc(C(=O)NC(C)(C)C)cc1,-0.95
12,Nc1nc(N)nc(C2C=CCCC2)n1 (centres undefined),1.8
13,COC(=O)c1cncc(C)c1,-1
14,CC1=C(O)C(=O)C(c2c(C)cc(C)c(Br)c2C)=C(O)C1=O,1.25
15,O=S(=O)(O)c1ccc2c(c1)C(C(Cl)(Cl)Cl)OC(C(Cl)(Cl)Cl)O2 (centres undefined),0.1
16,NC(=O)c1ccc(Oc2ccc(C(N)=O)cc2)cc1,1.85
17,N#CC1C(=O)NC(=O)C(C#N)C12CCCC(C(F)(F)F)C2 (centres undefined),0.45
18,CCC(C)c1c(N)n(S(=O)(=O)c2ccc(C)cc2)oc1=O (centres undefined),1.05
19,CCCCOc1ccc(NC(=O)Nc2nnc(C)s2)cc1,0.05
20,CCOC(=O)c1nc(SC)n(C)c1C(=O)OCC,0.5
21,COc1cc(NC(=O)c2cc3ccccc3cc2O)c(OC)cc1Cl,1.15
22,O=C(O)C(Cc1c[nH]c2ccccc12)N1C(=O)c2ccccc2C1=O (centres undefined),1.2

# Part of the list above in order of molecular weight, high to low.
row,Structure (SMILES),T2 sensor activation Q score
21,COc1cc(NC(=O)c2cc3ccccc3cc2O)c(OC)cc1Cl,1.15
19,CCCCOc1ccc(NC(=O)Nc2nnc(C)s2)cc1,0.05
2,O=c1cc2c(=O)oc3cc(O)c(O)oc3c2c(O)c1O,1.85

# Additional entries follow:

row,Structure (SMILES),T2 sensor activation Q score
1,Clc1cc2c(nn1)Nc1ccccc1S2,-0.35
2,CC(C)(C)NC1=NCCNC(c2ccccc2)=C1,-0.95
3,c1ccc(NN(Cc2ccncc2)c2ccccc2)cc1,0.95
4,O=C(CN1CCOCC1)N1CCOCC1,-0.35
5,CCCCCC(=O)C(=O)c1ccc(O)cc1O,-0.75
6,O=S1(=O)CCN(Cc2ccccn2)CC1,0.85
7,Cc1ccc(-n2nnnc2-c2cccnc2)cc1,1.5
8,COc1ccc([N+](=O)[O-])cc1NC(=O)N(C)Cc1ccco1,1.2
9,CC1(C)CC2(C)OC2C2(C1)N=NC(=Nc1ccccc1)O2 (centres undefined),0.3
10,Clc1ccccc1-c1nc(-c2ccncc2)no1,-0.65
11,O=C(O)CCc1cccnc1,-0.8
12,Nc1ccccc1C(=O)Nc1ccc(Cl)cc1Cl,0.45
13,N#Cc1cc(-c2ccccc2)[nH]c1-c1nccc2ccccc12,-0.2
14,C=CCOC(=O)/C=C\C(=O)NC(N)=O,0.05
15,CC(=O)c1cc2c(cc1C)CCCC2(C)C,-0.35
16,CC(C)(C)c1nc(-c2cccc(NS(=O)(=O)c3c(F)cccc3F)c2F)c(-c2ccnc(N)n2)s1,-0.35
17,O=C(c1ccccc1)c1ccc(-c2ccc(O)cc2)cc1,1.55
18,N#CCS(=O)(=O)c1cccc[n+]1[O-],0.45
19,CC1(C)c2ccccc2-c2nc3ccccc3cc2C1O (centres undefined),-0.95
20,O=CN/C=C\c1cc(O)ccc1O,-0.3
